From article PMC11365379
Results are given in words; binding and its absence hold for the method and conditions named. In cells and extracts the contact can be indirect. Some entries that bind do so weakly or less than the wild type. Tags and fused reporters may be left off the sequences shown.

Amino acid sequences for entries named in this document (tags omitted).
UniProt P42224: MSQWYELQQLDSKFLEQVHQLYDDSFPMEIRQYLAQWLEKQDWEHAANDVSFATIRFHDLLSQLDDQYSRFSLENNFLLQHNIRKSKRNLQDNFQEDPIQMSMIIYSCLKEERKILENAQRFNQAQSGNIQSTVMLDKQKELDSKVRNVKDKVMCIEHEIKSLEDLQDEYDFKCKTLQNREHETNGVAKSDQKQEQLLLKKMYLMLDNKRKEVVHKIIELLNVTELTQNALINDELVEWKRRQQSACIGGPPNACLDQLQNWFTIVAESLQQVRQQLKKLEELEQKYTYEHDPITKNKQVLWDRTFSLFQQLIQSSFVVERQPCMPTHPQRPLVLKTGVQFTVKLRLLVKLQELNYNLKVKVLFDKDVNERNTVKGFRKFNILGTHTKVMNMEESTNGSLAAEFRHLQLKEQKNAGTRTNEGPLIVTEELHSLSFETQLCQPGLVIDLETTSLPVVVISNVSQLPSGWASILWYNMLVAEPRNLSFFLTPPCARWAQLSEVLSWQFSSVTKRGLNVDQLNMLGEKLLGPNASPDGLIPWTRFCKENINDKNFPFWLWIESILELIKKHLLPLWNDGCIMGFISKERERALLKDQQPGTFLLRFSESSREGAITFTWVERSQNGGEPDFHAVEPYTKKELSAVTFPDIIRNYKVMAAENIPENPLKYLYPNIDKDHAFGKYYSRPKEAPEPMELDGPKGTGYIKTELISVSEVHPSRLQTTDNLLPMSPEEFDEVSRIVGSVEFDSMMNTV

Columns and labels:
[1] = biological target: T1, IRF3 (interferon regulatory factor 3), expressed in HEK293T for the interaction screening (human) (UniProt Q14653); assay: co-IP; extracts of HEK293T cells transfected with MYC-FXR and other indicated plasmids (interaction screening with components of interferon signaling); low salt lysis buffer (50 mmol/L HEPES, 150 mmol/L NaCl, 1% Triton X-100, pH 7.4), overnight
T1 sequence: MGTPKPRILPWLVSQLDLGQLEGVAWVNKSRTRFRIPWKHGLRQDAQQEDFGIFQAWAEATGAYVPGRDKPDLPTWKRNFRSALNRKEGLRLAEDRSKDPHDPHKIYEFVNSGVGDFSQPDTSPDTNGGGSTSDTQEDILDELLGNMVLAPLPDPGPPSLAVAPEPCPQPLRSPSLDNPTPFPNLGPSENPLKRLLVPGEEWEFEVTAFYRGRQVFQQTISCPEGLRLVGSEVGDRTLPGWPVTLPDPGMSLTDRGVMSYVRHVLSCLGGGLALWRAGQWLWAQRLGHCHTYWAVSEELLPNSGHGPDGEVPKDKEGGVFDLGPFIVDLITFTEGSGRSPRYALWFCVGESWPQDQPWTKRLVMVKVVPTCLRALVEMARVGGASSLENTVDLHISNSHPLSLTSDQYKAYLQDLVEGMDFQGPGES

STAT1 (human) = STAT1 (human) (UniProt P42224); assay: as above
Flag-FXR (human) = biological target: T2, Flag-FXR (human) (UniProt Q96RI1); assay: co-IP
T2 sequence: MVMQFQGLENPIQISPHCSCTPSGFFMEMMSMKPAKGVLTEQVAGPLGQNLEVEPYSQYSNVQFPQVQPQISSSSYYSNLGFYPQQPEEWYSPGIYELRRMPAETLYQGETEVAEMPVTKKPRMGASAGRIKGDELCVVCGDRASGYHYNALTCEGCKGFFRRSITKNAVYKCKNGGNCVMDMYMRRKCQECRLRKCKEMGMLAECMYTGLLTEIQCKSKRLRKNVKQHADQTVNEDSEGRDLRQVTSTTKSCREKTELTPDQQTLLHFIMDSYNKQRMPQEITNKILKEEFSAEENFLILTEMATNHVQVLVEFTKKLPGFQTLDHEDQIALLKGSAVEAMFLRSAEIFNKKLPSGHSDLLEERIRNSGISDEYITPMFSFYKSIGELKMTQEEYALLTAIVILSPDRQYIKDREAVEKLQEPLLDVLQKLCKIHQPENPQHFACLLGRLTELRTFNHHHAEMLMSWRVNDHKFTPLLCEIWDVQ

Flag-IRF3 (human) = biological target: T3, Flag-IRF3 (human) (UniProt Q14653); assay: co-IP; HEK293T cells co-transfected with HA-FXR and Flag-IRF3 or its mutants; Flag-tagged proteins immunoprecipitated with anti-Flag beads, immunoblot
T3 sequence: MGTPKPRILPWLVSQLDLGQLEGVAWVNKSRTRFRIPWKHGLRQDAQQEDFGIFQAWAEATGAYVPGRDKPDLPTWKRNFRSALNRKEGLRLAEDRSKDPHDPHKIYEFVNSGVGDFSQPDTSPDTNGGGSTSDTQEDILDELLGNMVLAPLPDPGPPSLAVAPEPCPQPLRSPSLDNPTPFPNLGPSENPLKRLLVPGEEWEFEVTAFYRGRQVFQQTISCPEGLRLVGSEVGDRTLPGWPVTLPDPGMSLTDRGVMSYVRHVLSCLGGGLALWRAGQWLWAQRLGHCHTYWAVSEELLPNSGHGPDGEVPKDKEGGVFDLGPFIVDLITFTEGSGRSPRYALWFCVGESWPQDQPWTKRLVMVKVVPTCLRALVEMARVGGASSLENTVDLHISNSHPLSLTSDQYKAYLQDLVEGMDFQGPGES

B1: MYC-FXR (farnesoid X receptor) (protein, UniProt Q96RI1 1-486)
chain: MVMQFQGLENPIQISPHCSCTPSGFFMEMMSMKPAKGVLTEQVAGPLGQNLEVEPYSQYSNVQFPQVQPQISSSSYYSNLGFYPQQPEEWYSPGIYELRRMPAETLYQGETEVAEMPVTKKPRMGASAGRIKGDELCVVCGDRASGYHYNALTCEGCKGFFRRSITKNAVYKCKNGGNCVMDMYMRRKCQECRLRKCKEMGMLAECMYTGLLTEIQCKSKRLRKNVKQHADQTVNEDSEGRDLRQVTSTTKSCREKTELTPDQQTLLHFIMDSYNKQRMPQEITNKILKEEFSAEENFLILTEMATNHVQVLVEFTKKLPGFQTLDHEDQIALLKGSAVEAMFLRSAEIFNKKLPSGHSDLLEERIRNSGISDEYITPMFSFYKSIGELKMTQEEYALLTAIVILSPDRQYIKDREAVEKLQEPLLDVLQKLCKIHQPENPQHFACLLGRLTELRTFNHHHAEMLMSWRVNDHKFTPLLCEIWDVQ
Q: With B1 as the binder, how does the binding [1] read?
A: The binding was “binds”.

Q: And the binding (STAT1 (human))?
A: Its binding is “binds”.

B2: HA-IRF3 (protein, UniProt Q14653 1-427)
chain: MGTPKPRILPWLVSQLDLGQLEGVAWVNKSRTRFRIPWKHGLRQDAQQEDFGIFQAWAEATGAYVPGRDKPDLPTWKRNFRSALNRKEGLRLAEDRSKDPHDPHKIYEFVNSGVGDFSQPDTSPDTNGGGSTSDTQEDILDELLGNMVLAPLPDPGPPSLAVAPEPCPQPLRSPSLDNPTPFPNLGPSENPLKRLLVPGEEWEFEVTAFYRGRQVFQQTISCPEGLRLVGSEVGDRTLPGWPVTLPDPGMSLTDRGVMSYVRHVLSCLGGGLALWRAGQWLWAQRLGHCHTYWAVSEELLPNSGHGPDGEVPKDKEGGVFDLGPFIVDLITFTEGSGRSPRYALWFCVGESWPQDQPWTKRLVMVKVVPTCLRALVEMARVGGASSLENTVDLHISNSHPLSLTSDQYKAYLQDLVEGMDFQGPGES
Q: How did the binding (Flag-FXR (human)) turn out when B2 was run?
A: Its binding is “binds”.

B3: HA-FXR (protein, UniProt Q96RI1 1-486)
chain: MVMQFQGLENPIQISPHCSCTPSGFFMEMMSMKPAKGVLTEQVAGPLGQNLEVEPYSQYSNVQFPQVQPQISSSSYYSNLGFYPQQPEEWYSPGIYELRRMPAETLYQGETEVAEMPVTKKPRMGASAGRIKGDELCVVCGDRASGYHYNALTCEGCKGFFRRSITKNAVYKCKNGGNCVMDMYMRRKCQECRLRKCKEMGMLAECMYTGLLTEIQCKSKRLRKNVKQHADQTVNEDSEGRDLRQVTSTTKSCREKTELTPDQQTLLHFIMDSYNKQRMPQEITNKILKEEFSAEENFLILTEMATNHVQVLVEFTKKLPGFQTLDHEDQIALLKGSAVEAMFLRSAEIFNKKLPSGHSDLLEERIRNSGISDEYITPMFSFYKSIGELKMTQEEYALLTAIVILSPDRQYIKDREAVEKLQEPLLDVLQKLCKIHQPENPQHFACLLGRLTELRTFNHHHAEMLMSWRVNDHKFTPLLCEIWDVQ
Q: Which binding (Flag-IRF3 (human)) does the source give for B3 here?
A: Its binding is “binds”.
